# For at least one compound, name, drawing or mass did not settle the structure.
# Tested on: MRSA K24 strain
# Assay: Anti-MRSA activity of the single agents (control plate without imipenem; imipenem plate alone)
# Type: cell-based, methicillin-resistant Staphylococcus aureus
# Conditions: imipenem 10 μg/mL in plate
smiles,measurement,value
C[C@@H](O)[C@H]1C(=O)N2C(C(=O)O)=C(SCCN=CN)C[C@H]12 [imipenem],anti-MRSA activity of imipenem alone,anti-MRSA activity was not observed

# Source: patent publication US20080318842A1, “Cyclic Isodityrosine Derivatives” (priority 2004, published 2008)
